Data taken from ChEMBL document CHEMBL3988442, “University of Dundee, Small-Polar-MMV Screening Library” (2021).

Amino acid sequences for entries named in this document (tags omitted). Residues count along the entry.
UniProt A4I591, 1-473: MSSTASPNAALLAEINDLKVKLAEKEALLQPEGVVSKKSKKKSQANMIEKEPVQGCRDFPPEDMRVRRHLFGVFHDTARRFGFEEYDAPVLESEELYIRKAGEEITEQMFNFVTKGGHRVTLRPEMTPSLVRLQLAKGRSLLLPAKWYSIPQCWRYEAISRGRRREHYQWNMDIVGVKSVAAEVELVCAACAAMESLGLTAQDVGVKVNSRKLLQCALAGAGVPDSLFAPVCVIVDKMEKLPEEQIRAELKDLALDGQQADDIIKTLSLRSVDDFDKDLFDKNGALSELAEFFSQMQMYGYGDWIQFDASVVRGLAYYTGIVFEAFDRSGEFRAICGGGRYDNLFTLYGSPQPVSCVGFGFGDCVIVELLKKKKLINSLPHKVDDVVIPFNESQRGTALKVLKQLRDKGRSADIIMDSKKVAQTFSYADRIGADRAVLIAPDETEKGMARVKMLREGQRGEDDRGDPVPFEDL
UniProt P9WPC5, whole entry: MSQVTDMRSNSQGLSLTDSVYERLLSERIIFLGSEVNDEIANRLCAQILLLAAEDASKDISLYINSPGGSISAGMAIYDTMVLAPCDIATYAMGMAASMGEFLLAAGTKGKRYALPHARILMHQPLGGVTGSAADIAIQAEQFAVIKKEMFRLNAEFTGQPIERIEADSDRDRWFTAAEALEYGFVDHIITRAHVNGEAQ
UniProt P9WPC3, whole entry partner: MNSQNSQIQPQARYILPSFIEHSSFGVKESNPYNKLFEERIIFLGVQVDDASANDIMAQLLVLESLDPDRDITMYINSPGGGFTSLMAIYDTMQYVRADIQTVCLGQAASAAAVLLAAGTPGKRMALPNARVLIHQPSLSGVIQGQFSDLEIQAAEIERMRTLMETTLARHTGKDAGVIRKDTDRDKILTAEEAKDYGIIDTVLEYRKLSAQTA

The filed quantity is “Percent Effect” (%). The record does not define 0% and 100%; most values in the screen are far below 50% and negative numbers occur (in some assays of this library far below -100). This is an unselected part of the compounds tested. Two or more numbers in one place are separate tests of the same structure; such repeats can differ widely. A dash means the value is not listed here; it may have been measured.

LiHisRS: 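Histidine-tRNA ligase, Leishmania infantum (UniProt A4I591). Enzyme assay of histidyl-tRNA synthetase; the read-out is not stated. Tested at 30 µM. The record gives no direction; compounds that gave an IC50 in retests scored well above the rest, so higher reads as stronger inhibition. The assay is labelled LdHisRS but filed under L. infantum. About 69,000 compounds were tested under these conditions; 0.6% (about 410) showed 50% or more at least once.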
Toxoplasma: 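Assay of Toxoplasma gondii numbers, read through their beta-galactosidase reporter with a colour substrate. Compounds at 10 µM. Higher reads as fewer parasites (inferred from which compounds were picked for retests). Of about 67,000 compounds tested this way, about 260 (0.38%) reached 50% or more in at least one test.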
ClpP1P2: 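Protease assay of ClpP1P2, read by the AMC dye that it sets free. Target: ClpP1P2, Mycobacterium tuberculosis (UniProt P9WPC5 and UniProt P9WPC3). Compounds at 50 µM. Higher reads as stronger inhibition, judged from the few compounds that gave an IC50. Most other retested compounds had strongly negative values. Size under these conditions: about 69,000 compounds, about 10 of them at 50% or above in at least one test.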
T. brucei: 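Whole-parasite assay of Trypanosoma brucei over 72 hours; the read-out is not stated. Compounds at 30 µM. Higher reads as stronger inhibition (inferred: compounds with an IC50 in retests scored well above the rest). Values scatter widely below zero; nearly all retest evidence comes from the higher of the two concentrations used. Size under these conditions: about 64,000 compounds, about 940 of them at 50% or above in at least one test.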
Leishmania in macrophages: 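Cell assay of Leishmania donovani living inside macrophages; the read-out is not stated. Tested at 30 µM. Direction is inferred from retests: higher values go with stronger inhibition. About 69,000 compounds were tested under these conditions; 1.5% (about 1,000) showed 50% or more at least once.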

structure,LiHisRS,Toxoplasma,ClpP1P2,T. brucei,Leishmania in macrophages
COc1ccc(-n2cnnc2CC2CCNCC2)cc1,16.24%,6.479%,1.855%,5.769%,-1.683%
CCCn1ncc(C(=O)NC(C)c2c(C)nn(CC)c2C)c1C (stereo not shown),10%,11.09%,-17.19%,-1.155%,34.19%
O=C(Nc1cn[nH]c1)NC1CCN(c2ccccc2OC(F)F)C1 (stereo not shown),7.843%,4.365%,-6.915%,-68.89%,41.59%
CC(C)N1CCCC(C(=O)NC(C)(C)c2nnc(N)s2)C1 (stereo not shown),6.667%,-8.227%,0.3502%,-23.07%,10.28%
CC(C)NC(=O)c1sc2ccccc2c1[C@H]1CC[C@H](CN)CC1,8.451%,-,21.1%,-,-
Cc1ccc(C(=O)N2CC3(CCNCC3)c3cc(Cl)ccc32)cn1,26.61%,-,0.7582%,-,-
CCCc1nc(NCCOC)c2c(n1)c(C)nn2CC,13.79%,57.71%,4.355%,-10.53%,9.64%
CS(=O)(=O)CCN1CCC(=Cc2ccccc2)CC1,17.78%,1.429%,-7.05%,10.38%,12.44%
Cc1ccc(-c2nc(C3CCN(C(=O)c4ccn(C)n4)CC3)no2)cn1,5.369%,-14.79%,-32.47%,0.1007%,-18.24%
CNc1ncc(CN(C)Cc2cc(O)c3cc(C)cc(C)c3n2)cn1,21.21%,1.162%,12.06%,-2.487%,-15.18%
Cc1nc(C)n(CCNC(=O)C(C)n2ccnc2C(C)C)n1 (stereo not shown),12.68%,4.805%,-0.6323%,-33.21%,22.52%
CCn1cnnc1CNC(=O)c1ccc(Cl)cc1I,14.78%,-9.714%,-1.957%,10.39%,10.73%
CN(C)S(=O)(=O)NCc1nc(-c2cccc(F)c2)c(-c2ccccn2)[nH]1,11.43%,-38.01%,-9.484%,-40.52%,3.232%
CC(C)N(C)C(=O)C1=NOC2(CCN(C(=O)NCc3cccnc3)C2)C1 (stereo not shown),25.71%,2.986%,-6.273%,2.025%,0.7448%
O=C(c1ccncc1)N1CC[C@@H](O)[C@@H](O)[C@H](N2CCC(F)(F)CC2)C1,0%,8.442%,-5.265%,-12.52%,14.07% & -18.76%
O=C(O)C(F)(F)F.O=C(O)C(F)(F)F.O=C(O)C(F)(F)F.[H][C@@]12CN(Cc3cccnc3)C[C@@]1([H])N(Cc1ccncc1)C(=O)CO2,-,5.41%,-,-13.68%,23.45%
COc1ccc2nc(CNC(=O)c3cc(C(C)C)on3)[nH]c2c1,10.64%,-2.67%,-0.8284%,-29.77%,-10.85%
Cc1ccc(CNC2CCc3[nH]c(=O)ccc3C2)cc1C (stereo not shown),-1.389%,-,-14.04%,-,-
COc1ccc(NCC(=O)NCC(=O)N2CCCC2)c(C(F)(F)F)c1,7.609%,29.25%,-9.27%,-23.48%,33.1%
Cc1csc(CN2CC[C@H]3C[C@H](c4nc(C)no4)O[C@@H]3C2)n1,6.452%,-,-10.53%,-,-
NCC1Cc2cccc(-c3ccc(O)c(F)c3)c2O1 (stereo not shown),6.667%,-28.2%,-8.687%,-30.92%,31.37%
COc1cc(Cl)ccc1C(=O)NCC(=O)Nc1nccs1,19.05%,-1.947%,7.852%,-3.638%,22.23%
O=C(NCCc1ccncc1)C1CCN(Cc2ccco2)CC1,-6.796%,-2.313%,-4.607%,-4.994%,12.76%
Nc1cc(N2CCOCC(Cc3ccc4[nH]ccc4c3)C2)ncn1 (stereo not shown),37.93%,14.15%,-39.6%,67.68%,23.35%
O=C(O)C(F)(F)F.O=C(O)C(F)(F)F.[H][C@@]12CN(Cc3cccnc3)C[C@]1([H])[C@H](OC)CCN2S(=O)(=O)N(C)C,-,-18.82%,-,-,18.36%
Fc1cnc(N2CC3(CCN(CC4CC4)C3)C2)nc1,14%,-,1.908%,-,-
CN1C[C@@H]2CC[C@H](C1)N(Cc1ccccc1OCCN1CCOCC1)C2,15.69%,-,-3.109%,-,-
COc1ccccc1CC1CCCN(CC(N)=O)C1 (stereo not shown),13.33%,-7.383%,12.23%,-11.23%,-9.738%
CCOc1ccc(CNC(C)c2cccc(S(=O)(=O)NC)c2)cc1 (stereo not shown),9.821%,-3.269%,-3.325%,-29.75%,3.863%
CCN(Cc1noc(CC(C)C)n1)Cc1ccccc1C(=O)O,15.38%,2.238%,-2.181%,12.17%,8.027%
O=C(NCc1ccc(-n2cncn2)nc1)c1ccoc1,19.05%,9.592%,1.01%,4.586%,-2.939%
Cn1c(NCc2ccc(C(N)=O)cc2)nc2cc(Cl)ccc21,32.58%,11.93%,-0.6407%,15.02%,7.816%
COC(=O)c1ccoc1COC(=O)CCc1ccc(OC)c(OC)c1,2.857%,-2.363%,-8.467%,9.197%,-1.833%
CCN(CC)CC1CN(CCc2ccccc2)Cc2nccn2C1.O=C(O)C(F)(F)F.O=C(O)C(F)(F)F (stereo not shown),-,12.28%,-,-28.98%,38.89%
CC(C)Cc1cc(C(=O)N2CCC(N3CCCC3)CC2)cc(O)n1,13.95%,-1.169%,-3.256%,-12.37%,17.83%
O=C(O)C(F)(F)F.O=C(O)C(F)(F)F.[H][C@]12CCN(Cc3cccc(C#N)c3)C[C@@]1([H])[C@H](CN1CCCC1)OC2,-,-2.929%,-,-29.42%,9.911%
Cn1ccc2c(-c3cc(N4CCCCC4)ncn3)ccnc21,54.76%,-4.348%,-131%,-21.11%,-16.79%
N#CC1(C(=O)N2CCOC(c3ccc(F)cc3)C2)CCCC1 (stereo not shown),14.61%,7.82%,-2.429%,-9.18%,-2.353%

The first 4 entries again:

{"structure": "COc1ccc(-n2cnnc2CC2CCNCC2)cc1", "LiHisRS": 16.24, "Toxoplasma": 6.479, "ClpP1P2": 1.855, "T. brucei": 5.769, "Leishmania in macrophages": -1.683}
{"structure": "CCCn1ncc(C(=O)NC(C)c2c(C)nn(CC)c2C)c1C", "stereo": "stereo not shown", "LiHisRS": 10, "Toxoplasma": 11.09, "ClpP1P2": -17.19, "T. brucei": -1.155, "Leishmania in macrophages": 34.19}
{"structure": "O=C(Nc1cn[nH]c1)NC1CCN(c2ccccc2OC(F)F)C1", "stereo": "stereo not shown", "LiHisRS": 7.843, "Toxoplasma": 4.365, "ClpP1P2": -6.915, "T. brucei": -68.89, "Leishmania in macrophages": 41.59}
{"structure": "CC(C)N1CCCC(C(=O)NC(C)(C)c2nnc(N)s2)C1", "stereo": "stereo not shown", "LiHisRS": 6.667, "Toxoplasma": -8.227, "ClpP1P2": 0.3502, "T. brucei": -23.07, "Leishmania in macrophages": 10.28}